For experiment [1], the system named is mIMCD3. The experiment in a line: robust z score of cell number vs plate controls; higher = more cells (less cytotoxic). To be noted: 10 µM, 48 h.
Experiment [2] has as its system mIMCD3. The experiment in a line: robust z score of cilia incidence (% cells with single cilium) vs plate controls; higher = more ciliated cells. The conditions noted are these: 10 µM; 48 h; siRNA: siScr.
In experiment [3] the test system is mIMCD3. The experiment in a line: robust z score of cilia incidence (% cells with single cilium) vs plate controls; higher = more ciliated cells (rescue of cilia loss). The conditions noted are these: 10 µM; 48 h; siRNA: siRpgrip1l.

Structures are written as SMILES. Structures can show the parent of a compound that is named as a salt. ± gives the standard deviation of the averaged measurements. Some of the results follow. Part of the spread comes from offsets between plates or batches.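 The cells are a mouse kidney inner medullary collecting duct line, silenced either for the ciliary gene Rpgrip1l or with a non-targeting control siRNA.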

Take `CC1C(=O)OC2C(O)C34C5CC(C(C)(C)C)C36C(OC(=O)C6O)OC4(C(=O)O5)C12O` (stereo not given) [Ginkgolide B]: the “robust z score of cell number” value with mIMCD3 [1] (siRNA: siRpgrip1l) is -4.44 ± 5.7; with mIMCD3 [1] (siRNA: siScr), -2.5 ± 4.2. For the same molecule, the “robust z score of cilia incidence” value with mIMCD3 [2] is -0.423 ± 2.9; in the experiment with mIMCD3 [3], -170 ± 140.
For `CCOC(=O)[C@]12CC1/C(=N\O)c1ccccc1O2` (stereo not given in full), the “robust z score of cell number” value with mIMCD3 [1] (siRNA: siRpgrip1l) is -7.68 ± 4.3; in the experiment with mIMCD3 [1] (siRNA: siScr), 0.406 ± 2.9. Moreover, the “robust z score of cilia incidence” value was -0.514 ± 3.9 with mIMCD3 [2] and -17.8 ± 4.1 in the experiment with mIMCD3 [3].
Taken in the same sequence, the figures for `C/C(=N\NC(=O)C1C(=O)NCC1c1ccccc1)c1cccc(Br)c1` (stereo not given) were -4.36 ± 3.2, -3.15 ± 3.1, -7.06 ± 11 and -5.61 ± 0.55.
For `CCCCCCCCCCC(C)(C)C(=O)Nc1c(OC)cc(OC)cc1OC`, the figures for the “robust z score of cell number” value with mIMCD3 [1] (siRNA: siRpgrip1l) and in the experiment with mIMCD3 [1] (siRNA: siScr) were -39 ± 24 and -52 ± 28, respectively. For the same molecule, the “robust z score of cilia incidence” value was -34.9 ± 16 in the experiment with mIMCD3 [2] and -58 ± 6.5 in the experiment with mIMCD3 [3].
Turning to `O=C(NCC1CCCCN1)c1cc(OCC(F)(F)F)ccc1OCC(F)(F)F` (stereo not given) [Flecainide acetate], the “robust z score of cell number” value was -22.4 ± 29 in the experiment on mIMCD3 [1] (siRNA: siRpgrip1l) and -1.72 ± 3.9 with mIMCD3 [1] (siRNA: siScr). The “robust z score of cilia incidence” value with mIMCD3 [2] was 0.503 ± 1.2; in the experiment with mIMCD3 [3], -163 ± 160.
As for `COc1ccc2cccc(N3CCN(CCNC(=O)c4ccc(F)cc4)CC3)c2c1`, the “robust z score of cell number” value with mIMCD3 [1] (siRNA: siRpgrip1l) is -17.4 ± 17; in the experiment on mIMCD3 [1] (siRNA: siScr), -15.4 ± 5.2. Further, the figures for the “robust z score of cilia incidence” value in the experiment with mIMCD3 [2] and in the experiment on mIMCD3 [3] were -24.4 ± 30 and -28.7 ± 11, respectively.
Take `CN1CCC[C@@H]1Cc1c[nH]c2ccc(CCS(=O)(=O)c3ccccc3)cc12` [Eletriptan hydrobromide]: the “robust z score of cell number” value is 16.4 ± 17 in the experiment on mIMCD3 [1] (siRNA: siRpgrip1l) and -3.22 ± 3.4 with mIMCD3 [1] (siRNA: siScr). For the same molecule, the entries for the “robust z score of cilia incidence” value with mIMCD3 [2] and in the experiment on mIMCD3 [3] were -8.01 ± 3.7 and -235 ± 160, respectively.
Consider `COc1cc2c(cc1C(F)(F)F)N(C(=O)Nc1cc(F)cc(-c3cccnc3)c1)CC2`, for which the “robust z score of cell number” value in the experiment on mIMCD3 [1] (siRNA: siRpgrip1l) is -307 ± 220; in the experiment on mIMCD3 [1] (siRNA: siScr) it was -40.4 ± 9.6. Further, the figures for the “robust z score of cilia incidence” value in the experiment on mIMCD3 [2] and with mIMCD3 [3] were -53.6 ± 14 and -33.3 ± 13, respectively.
`Cn1cccc1/C=C1\C(=O)NC(=O)c2ccccc21`: the “robust z score of cell number” value is -1.01 ± 4.3 in the experiment on mIMCD3 [1] (siRNA: siRpgrip1l) and -5.13 ± 3 with mIMCD3 [1] (siRNA: siScr). The “robust z score of cilia incidence” value was 6.23 ± 0.48 in the experiment on mIMCD3 [2] and -12.7 ± 2.9 in the experiment with mIMCD3 [3].
Regarding `CCC(=O)NC1CCc2cccc(OC)c2C1` (stereo not given), the entries for the “robust z score of cell number” value with mIMCD3 [1] (siRNA: siRpgrip1l) and in the experiment on mIMCD3 [1] (siRNA: siScr) were -5.81 ± 3.6 and 0.303 ± 0.015, respectively. Moreover, the “robust z score of cilia incidence” value was -0.329 ± 1.8 in the experiment with mIMCD3 [2] and -13.2 ± 1.6 in the experiment with mIMCD3 [3].
Turning to `c1ccc(N2CCN(Cc3nc4ccccc4[nH]3)CC2)nc1` [ABT 724 trihydrochloride], the “robust z score of cell number” value in the experiment with mIMCD3 [1] (siRNA: siRpgrip1l) is 1.91 ± 1; in the experiment with mIMCD3 [1] (siRNA: siScr), -0.759 ± 3.4. Moreover, the figures for the “robust z score of cilia incidence” value in the experiment on mIMCD3 [2] and with mIMCD3 [3] were 0.126 ± 1.4 and -7.02 ± 2.2, respectively.
With `O=Nc1ccc(O)c2ncccc12`, the “robust z score of cell number” value with mIMCD3 [1] (siRNA: siRpgrip1l) is -62.1 ± 54; with mIMCD3 [1] (siRNA: siScr) it was -51.7 ± 1.6. For the same molecule, the entries for the “robust z score of cilia incidence” value in the experiment with mIMCD3 [2] and in the experiment on mIMCD3 [3] were -76 ± 17 and -36.6 ± 8.6, respectively.
Turning to `C[C@]12CC[C@@H]3c4ccc(O)cc4C[C@@H](CCCCCCCCC[S+]([O-])CCCC(F)(F)C(F)(F)F)[C@H]3[C@@H]1CC[C@@H]2O` (stereo not given in full), the entries for the “robust z score of cell number” value with mIMCD3 [1] (siRNA: siRpgrip1l) and in the experiment with mIMCD3 [1] (siRNA: siScr) were -22.3 ± 14 and -9.55 ± 0.72, respectively. The “robust z score of cilia incidence” value in the experiment on mIMCD3 [2] was -2.85 ± 3.6; in the experiment on mIMCD3 [3], -21.4 ± 3.5.
As for `N#C/C(=C(/N)Sc1ccc(N)cc1)c1ccccc1C(F)(F)F`, the results for the “robust z score of cell number” value in the experiment on mIMCD3 [1] (siRNA: siRpgrip1l) and with mIMCD3 [1] (siRNA: siScr) were -53 ± 64 and -12 ± 14, respectively. Also, the “robust z score of cilia incidence” value with mIMCD3 [2] is -4.63 ± 2.7; in the experiment on mIMCD3 [3] it was -16.7 ± 0.29.
For the molecule `O=C(O)c1ccc2cc(-c3ccc(O)c(C45CC6CC(CC(C6)C4)C5)c3)ccc2c1`, the “robust z score of cell number” value is -184 ± 200 with mIMCD3 [1] (siRNA: siRpgrip1l) and -43.3 ± 11 with mIMCD3 [1] (siRNA: siScr). In addition, the figures for the “robust z score of cilia incidence” value with mIMCD3 [2] and with mIMCD3 [3] were -45.8 ± 12 and -537 ± 300, respectively.

(Values after the supplement of paper PMC12009310.)
